Measured values as given in paper PMC12682140.
These are yes or no findings as the source states them, for the method shown. Binding seen in cells or lysates may run through a third protein. Some entries that bind do so weakly or less than the wild type.

Sequences of proteins named here, by UniProt entry; tags and fusion partners are left off.
UniProt O43597: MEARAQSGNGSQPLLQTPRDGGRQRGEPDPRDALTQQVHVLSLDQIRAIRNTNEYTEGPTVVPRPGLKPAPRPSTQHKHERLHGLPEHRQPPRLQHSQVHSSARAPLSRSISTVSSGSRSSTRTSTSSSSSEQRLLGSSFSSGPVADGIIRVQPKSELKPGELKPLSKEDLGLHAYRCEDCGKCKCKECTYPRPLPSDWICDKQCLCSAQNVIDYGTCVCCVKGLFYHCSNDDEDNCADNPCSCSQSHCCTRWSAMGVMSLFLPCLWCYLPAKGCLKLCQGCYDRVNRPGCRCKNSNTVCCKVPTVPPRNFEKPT

What was measured:
GFP2-C-Raf = GFP2-C-Raf (UniProt P04049); assay: co-IP; GFP-Trap agarose pull-down of GFP2-tagged bait from HEK293-EBNA lysates (50 mM Tris pH 7.5, 150 mM NaCl, 0.5% NP-40, 2 mM EDTA, 1 mM DTT), 3 h at room temperature, Western blot
nL-H-RasG12V = nL-H-RasG12V (UniProt P01112); assay: FRET or BRET; BRET in HEK293-EBNA cells, nanoLuc-fused donor (25 ng plasmid, constant) and mNeonGreen-fused acceptor titrated to 1:40 donor:acceptor plasmid ratio; BRETtop; also at fixed ratios with mevastatin, 2-bromopalmitate or AMG510
mNG-SPRY2 = mNG-SPRY2 (UniProt O43597); assay: as above

Substance | binding (GFP2-C-Raf) | binding (nL-H-RasG12V) | binding (mNG-SPRY2)
SPRY2 (endogenous) (from UniProt O43597 1-315) | binds |  | 
mNG-SPRY2 (from UniProt O43597 1-315) |  | binds | binds
